# Experimental data published in patent publication US6638974B1, “Ascorbyl esters for the treatment of cancer” (University of South Florida, priority 1999, dated 2003).
# At least one compound was matched to its structure with a doubt left.
# Test system: HT29 cells
# Assay: MTT cell viability assay, HT29
# Format: cell-based, human
# Details: compared to As-P
# Procedure: HT-29, a human colon adenocarcinoma cell line, and CCD 18, a normal colon fibroblast, were obtained from the American Type Culture Collection (Rockville, Md.). The cells were grown in RPM1 1640 medium containing HEPES (20 mM), fetal bovine serum (10%), sodium bicarbonate (1 g/L), and penicillin (10 U/ml), streptomycin (10 ug/ml) at 37° C. in 5% CO2 humidified atmosphere.
# The effect of various concentrations of As-P, ascorbate, palmitate or 5-fluorouracil (5 FU) on the viability and/or proliferation of HT29 or CCD 18 cells were evaluated. Cells were seeded in 96-well culture plates at 1×10^4 cells/well. The following day, As-P, ascorbate, palmitate or 5 FU were added at various concentrations. Cell viability was evaluated by the MTT assay 24 hours or 48 hours after the addition of the compounds. The effect of As-P on the cell cycle of HT29 cells was also investigated by flow cytometry.
row,SMILES,"stimulatory effect on HT29 cell growth, ascorbate or palmitate alone"
1,O=C1O[C@H]([C@@H](O)CO)C(O)=C1O [ascorbate],slight stimulatory effect
2,CCCCCCCCCCCCCCCC(=O)O [palmitate],slight stimulatory effect
